Measurements published in publication PMC10229581.
Results are given in words; binding and its absence hold for the method and conditions named. In cells and extracts the contact can be indirect. Here binding means that the protein was enriched with, or labelled near, the bait; the list need not be complete.

Protein sequences, listed by entry. Tags and fused reporters are not part of them. Residues count along the entry.
UniProt Q9Z2G6, residues 22-790: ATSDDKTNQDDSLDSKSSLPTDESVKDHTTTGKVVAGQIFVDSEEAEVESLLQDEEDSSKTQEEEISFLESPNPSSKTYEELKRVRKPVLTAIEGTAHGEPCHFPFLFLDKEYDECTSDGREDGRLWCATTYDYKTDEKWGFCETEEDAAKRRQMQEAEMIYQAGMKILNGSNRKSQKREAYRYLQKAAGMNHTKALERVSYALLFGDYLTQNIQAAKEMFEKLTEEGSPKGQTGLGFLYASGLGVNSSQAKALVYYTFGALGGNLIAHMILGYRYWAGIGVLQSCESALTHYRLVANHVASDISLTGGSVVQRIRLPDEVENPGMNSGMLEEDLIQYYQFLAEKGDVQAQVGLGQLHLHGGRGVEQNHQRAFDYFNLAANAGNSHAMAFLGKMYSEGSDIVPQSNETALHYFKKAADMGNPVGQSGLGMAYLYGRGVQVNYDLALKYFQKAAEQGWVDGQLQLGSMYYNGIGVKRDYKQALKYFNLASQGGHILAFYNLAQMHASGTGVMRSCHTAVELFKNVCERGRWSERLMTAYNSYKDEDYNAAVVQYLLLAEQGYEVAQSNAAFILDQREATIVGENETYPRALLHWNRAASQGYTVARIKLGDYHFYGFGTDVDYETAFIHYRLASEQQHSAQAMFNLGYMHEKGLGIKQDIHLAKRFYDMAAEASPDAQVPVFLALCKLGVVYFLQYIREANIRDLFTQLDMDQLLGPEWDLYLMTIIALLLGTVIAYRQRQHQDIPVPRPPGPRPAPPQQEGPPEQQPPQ
UniProt P49817: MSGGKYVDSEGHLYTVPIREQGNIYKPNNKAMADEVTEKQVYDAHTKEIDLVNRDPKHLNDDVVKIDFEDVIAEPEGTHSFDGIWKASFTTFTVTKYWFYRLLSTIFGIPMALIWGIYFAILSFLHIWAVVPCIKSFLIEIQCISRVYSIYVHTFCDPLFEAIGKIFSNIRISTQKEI
UniProt Q06890, residues 22-448: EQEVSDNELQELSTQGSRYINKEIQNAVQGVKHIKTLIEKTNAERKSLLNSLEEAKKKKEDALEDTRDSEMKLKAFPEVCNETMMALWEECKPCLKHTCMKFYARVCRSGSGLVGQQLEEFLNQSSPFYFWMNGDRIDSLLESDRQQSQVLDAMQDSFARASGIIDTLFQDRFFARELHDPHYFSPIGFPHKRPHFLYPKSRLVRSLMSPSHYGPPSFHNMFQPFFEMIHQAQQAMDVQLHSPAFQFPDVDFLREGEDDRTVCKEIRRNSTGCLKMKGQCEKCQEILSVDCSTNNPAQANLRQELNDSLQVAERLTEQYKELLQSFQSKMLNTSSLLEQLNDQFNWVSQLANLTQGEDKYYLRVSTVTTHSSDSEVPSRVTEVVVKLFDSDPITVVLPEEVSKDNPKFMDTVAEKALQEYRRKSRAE
UniProt P08113, residues 22-802: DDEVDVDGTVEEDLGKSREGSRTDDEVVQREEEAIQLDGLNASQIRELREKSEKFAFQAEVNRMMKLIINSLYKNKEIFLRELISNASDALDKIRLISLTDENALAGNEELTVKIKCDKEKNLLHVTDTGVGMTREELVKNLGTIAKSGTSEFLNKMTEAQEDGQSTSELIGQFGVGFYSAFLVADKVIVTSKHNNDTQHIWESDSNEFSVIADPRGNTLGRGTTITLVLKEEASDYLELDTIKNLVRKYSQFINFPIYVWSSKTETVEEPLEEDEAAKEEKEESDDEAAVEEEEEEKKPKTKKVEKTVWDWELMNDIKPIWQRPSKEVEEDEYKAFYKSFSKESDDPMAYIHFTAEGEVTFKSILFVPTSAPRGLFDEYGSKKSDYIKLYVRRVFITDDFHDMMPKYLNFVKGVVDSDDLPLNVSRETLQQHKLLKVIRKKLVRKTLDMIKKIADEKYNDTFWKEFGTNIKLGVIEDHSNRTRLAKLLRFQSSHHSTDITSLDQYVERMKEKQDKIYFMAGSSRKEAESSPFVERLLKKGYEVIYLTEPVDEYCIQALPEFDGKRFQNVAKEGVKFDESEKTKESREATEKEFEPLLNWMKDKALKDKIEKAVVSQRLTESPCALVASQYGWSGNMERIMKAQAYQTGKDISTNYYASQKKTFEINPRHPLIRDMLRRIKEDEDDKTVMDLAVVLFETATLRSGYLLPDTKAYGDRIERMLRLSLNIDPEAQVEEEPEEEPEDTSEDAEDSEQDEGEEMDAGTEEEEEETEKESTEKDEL
UniProt P20029, residues 20-655: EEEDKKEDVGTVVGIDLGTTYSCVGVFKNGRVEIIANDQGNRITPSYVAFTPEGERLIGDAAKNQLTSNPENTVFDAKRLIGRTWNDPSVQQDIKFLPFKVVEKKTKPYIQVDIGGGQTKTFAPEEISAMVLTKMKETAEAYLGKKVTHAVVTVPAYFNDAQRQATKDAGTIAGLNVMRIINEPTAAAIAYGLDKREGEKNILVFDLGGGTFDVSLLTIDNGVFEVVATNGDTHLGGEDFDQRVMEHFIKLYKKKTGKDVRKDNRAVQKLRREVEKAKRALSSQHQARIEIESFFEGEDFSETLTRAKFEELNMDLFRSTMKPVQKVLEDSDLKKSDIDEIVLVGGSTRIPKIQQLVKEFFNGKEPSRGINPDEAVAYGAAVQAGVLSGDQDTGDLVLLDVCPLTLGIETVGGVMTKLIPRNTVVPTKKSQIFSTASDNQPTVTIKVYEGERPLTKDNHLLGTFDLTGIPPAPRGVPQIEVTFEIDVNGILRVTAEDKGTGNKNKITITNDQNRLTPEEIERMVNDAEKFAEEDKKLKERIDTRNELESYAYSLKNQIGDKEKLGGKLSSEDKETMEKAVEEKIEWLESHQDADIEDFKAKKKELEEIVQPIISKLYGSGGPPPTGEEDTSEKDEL
UniProt O08638: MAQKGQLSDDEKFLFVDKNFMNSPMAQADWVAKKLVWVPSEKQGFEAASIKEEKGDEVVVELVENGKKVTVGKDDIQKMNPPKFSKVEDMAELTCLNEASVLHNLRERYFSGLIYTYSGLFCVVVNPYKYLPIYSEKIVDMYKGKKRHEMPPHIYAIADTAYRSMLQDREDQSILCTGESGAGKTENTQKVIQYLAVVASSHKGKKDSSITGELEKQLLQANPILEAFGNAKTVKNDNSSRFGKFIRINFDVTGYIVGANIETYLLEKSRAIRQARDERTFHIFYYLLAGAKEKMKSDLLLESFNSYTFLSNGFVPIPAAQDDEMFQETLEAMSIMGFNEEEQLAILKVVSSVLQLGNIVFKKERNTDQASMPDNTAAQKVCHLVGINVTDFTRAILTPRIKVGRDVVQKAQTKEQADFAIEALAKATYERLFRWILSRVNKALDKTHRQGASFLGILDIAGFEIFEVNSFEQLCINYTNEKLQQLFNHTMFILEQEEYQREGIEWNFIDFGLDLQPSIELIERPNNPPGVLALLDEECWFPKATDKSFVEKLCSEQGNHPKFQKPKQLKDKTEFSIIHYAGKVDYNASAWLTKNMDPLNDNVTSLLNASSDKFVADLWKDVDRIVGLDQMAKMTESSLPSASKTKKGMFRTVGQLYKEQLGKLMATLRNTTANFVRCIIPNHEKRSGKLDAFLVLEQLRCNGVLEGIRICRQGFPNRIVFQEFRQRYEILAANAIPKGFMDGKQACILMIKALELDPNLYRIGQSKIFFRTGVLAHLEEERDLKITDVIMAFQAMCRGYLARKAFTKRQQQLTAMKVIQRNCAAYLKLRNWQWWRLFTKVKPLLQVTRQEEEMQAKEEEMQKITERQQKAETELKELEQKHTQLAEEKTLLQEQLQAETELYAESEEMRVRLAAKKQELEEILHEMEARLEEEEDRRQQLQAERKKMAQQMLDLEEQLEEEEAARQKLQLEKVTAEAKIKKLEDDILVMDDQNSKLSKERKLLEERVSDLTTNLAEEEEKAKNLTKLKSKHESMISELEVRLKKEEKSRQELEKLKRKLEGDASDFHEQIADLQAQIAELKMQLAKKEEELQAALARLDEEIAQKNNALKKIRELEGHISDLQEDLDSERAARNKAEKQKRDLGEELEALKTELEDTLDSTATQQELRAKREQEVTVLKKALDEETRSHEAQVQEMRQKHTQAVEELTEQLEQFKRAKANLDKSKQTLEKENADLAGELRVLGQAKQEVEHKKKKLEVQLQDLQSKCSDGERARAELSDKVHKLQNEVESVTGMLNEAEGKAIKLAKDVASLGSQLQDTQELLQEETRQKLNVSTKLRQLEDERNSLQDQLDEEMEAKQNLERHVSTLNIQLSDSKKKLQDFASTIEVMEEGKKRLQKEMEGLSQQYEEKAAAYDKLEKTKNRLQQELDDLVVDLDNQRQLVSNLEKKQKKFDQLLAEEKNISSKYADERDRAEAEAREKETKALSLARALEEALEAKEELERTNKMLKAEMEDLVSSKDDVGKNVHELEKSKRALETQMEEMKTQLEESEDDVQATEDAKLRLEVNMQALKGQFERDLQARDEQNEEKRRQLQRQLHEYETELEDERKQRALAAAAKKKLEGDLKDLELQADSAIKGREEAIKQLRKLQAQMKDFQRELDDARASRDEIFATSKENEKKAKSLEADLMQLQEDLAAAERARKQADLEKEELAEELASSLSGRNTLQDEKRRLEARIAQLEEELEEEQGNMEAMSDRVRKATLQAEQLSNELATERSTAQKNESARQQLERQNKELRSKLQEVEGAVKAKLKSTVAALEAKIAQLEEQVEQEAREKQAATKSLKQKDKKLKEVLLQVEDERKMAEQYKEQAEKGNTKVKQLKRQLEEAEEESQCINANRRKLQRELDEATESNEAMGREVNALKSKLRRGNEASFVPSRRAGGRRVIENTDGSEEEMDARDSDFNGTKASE

T1: lipoprotein lipase (mouse (endogenous in WAT, BAT and differentiated adipocytes)) (UniProt P11152)
T1 sequence: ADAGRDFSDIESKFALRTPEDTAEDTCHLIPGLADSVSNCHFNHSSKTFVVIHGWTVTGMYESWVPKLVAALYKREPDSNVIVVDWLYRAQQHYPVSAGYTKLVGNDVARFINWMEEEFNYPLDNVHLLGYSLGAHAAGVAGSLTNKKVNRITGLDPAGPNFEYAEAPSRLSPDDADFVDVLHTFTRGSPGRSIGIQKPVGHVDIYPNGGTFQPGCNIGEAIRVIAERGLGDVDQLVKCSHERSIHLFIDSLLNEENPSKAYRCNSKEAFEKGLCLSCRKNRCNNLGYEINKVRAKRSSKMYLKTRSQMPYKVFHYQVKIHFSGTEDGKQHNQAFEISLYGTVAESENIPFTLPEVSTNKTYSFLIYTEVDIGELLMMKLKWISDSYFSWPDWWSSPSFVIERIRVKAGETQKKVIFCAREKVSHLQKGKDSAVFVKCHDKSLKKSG

B1: ribophorin 1 (protein, UniProt Q91YQ5 26-608)
chain: SSEAPPLVNEDVKRTVDLSSHLAKVTAEVVLVHPGGGSTSRASSFVLALEPELESRLAHLGVQIKGEDEEDNNLEVRETKIKGKSGRFFTVKLPVALDPGSKISVVVETVYTHVLHPYPTQITQSEKQFVVFEGNHYFYSPYPTKTQTMRVKLASRNVESYTKLGNPSRSEDVLDYGPFKDIPAYSQDTFKVHYENNSPFLTITSMTRVIEVSHWGNIAVEENVDLKHTGAVLKGPFSRYDYQRQPDSGISSIRSFKTILPAAAQDVYYRDEIGNVSTSHLLILDDSVEMEIRPRFPLFGGWKTHYIVGYNLPSYEYLYNLGDQYALKMRFVDHVFDEQVIDSLTVKIILPEGAKNIQVDSPYDISRAPDELHYTYLDTFGRPVIVAYKKNLVEQHIQDIVVHYTFNKVLMLQEPLLVVAAFYILFFTVIIYVRLDFSITKDPAAEARMKVACITEQVLTLVNKRLGLYRHFDETVNRYKQSRDISTLNSGKKSLETEHKAVTSEIAVLQSRLKTEGSDLCDRVSEMQKLDAQVKELVLKSAVEAERLVAGKLKKDTYLENEKLSSGKRQELVTKIDHILDAL
B2: procollagen-Lysine,2-oxoglutarate 5-dioxygenase 3 (enzyme, UniProt Q9R0E1 28-741)
chain: SDRPRGANAVNPDKLLVITVATAETEGYRRFLQSAEFFNYTVRTLGLGQEWRGGDVARTVGGGQKVRWLKKEMEKYADQKDMIIMFVDSYDVILASSPTELLKKFVQSGSHLLFSAESFCWPEWGLAEQYPEVGMGKRFLNSGGFIGFAPTIHQIVRQWNYKDDDDDQLFYTQLYLDPGLREKLKLSLDHKSRIFQNLNGALDEVILKFDQNRVRIRNVAYDTLPVVVHGNGPTKLQLNYLGNYVPNGWTPQGGCGFCNQTLRTLPGGQPPPRVLLAVFVEQPTPFLPRFLQRLLLLDYPPDRISLFLHNSEVYHEPHIADAWPQLQDHFSAVKLVGPEEALSAGEARDMAMDSCRQNPECEFYFSLDADAVLTNPETLRVLIEQNRKVIAPMLSRHGKLWSNFWGALSPNEYYARSEDYVELVQRKRVGVWNVPYISQAYVIRGETLRTELPQKEVFSSSDTDPDMAFCKSVRDKGIFLHLSNQHEFGRLLATSRYDTDHLHPDLWQIFDNPVDWREQYIHENYSRALDGEGLVEQPCPDVYWFPLLTEQMCDELVEEMEHYGQWSGGRHEDSRLAGGYENVPTVDIHMKQVGYEDQWLQLLRTYVGPMTEYLFPGYHTKTRAVMNFVVRYRPDEQPSLRPHHDSSTFTLNVALNHKGVDYEGGGCRFLRYDCRISSPRKGWALLHPGRLTHYHEGLPTTRGTRYIMVSFVDP
B3: GPX3 (enzyme, UniProt P46412 25-226)
chain: QEKSKTDCHGGMSGTIYEYGALTIDGEEYIPFKQYAGKYILFVNVASYUGLTDQYLELNALQEELGPFGLVILGFPSNQFGKQEPGENSEILPSLKYVRPGGGFVPNFQLFEKGDVNGEKEQKFYTFLKNSCPPTAELLGSPGRLFWEPMKIHDIRWNFEKFLVGPDGIPVMRWYHRTTVSNVKMDILSYMRRQAALSARGK
B4: CCPG1 (protein, UniProt Q640L3 1-753)
chain: MSESSSDSDSSCGWTVINHEGSDIEIVNSATASDNCGLTLECSLVEQEELPVLYVGHGGEESSANNTSSVGETMLSSMRETKSAAEVEEAPSPEDNVYFGTTSDDSDIVTLEPPKLEEMGNQEVTIQEAPSSDDLNMGSSSSSQYAFCQPEPVFSSQPSDEESSSDDTSHEPSPAPRRRRNRKKTVSISESEEPPLAEPEDEPSKEPSKRHFSRGLNKCVILALVIAVSMGFGHFYGTIQIQKQLVRKTHEDELDGVKGYLSQRKQEQESFLDFKSLKENLERCWTVTESEKITFETQKKNLAAENQYLRISLEKEEQALSSLQEELRQLREQIRLLEDKGTSTQLVRENQVLKQYLEVEKQKTDSFLREREMLLEEARMLKRDLEREQLTAMALRAELEQFIPGQAQSRAESPSVQTEEKEVGLLQQRLAELEQKLIFEQQRSDLWERLYVEAKDQHGKQETDGRKRGSRGSHRAKSKSKETFLGTVKETFDAMKNSTKEFVRHHKEKIKQAKEAVKENLKKFSDSVKSTFRHFKDTTKNIFDEKGSKRFRAPKEAATEKTRTAYSYSSYSQQEAPNQNQNCRRPSAQRDGGREKPSHSEEIRKNANSYTYKAKSDCRGTHSTRRVCSGMFECAGQEAISPVNKASPVRMNDFKQLIHWYLLNELETFHHWKELDQFISPFFPNGVFRHDQQLFADFVDDVKGYLKSIKEYRVEDGNLEKLDGCIYRHFGHVFALPFGPRSVYIKPCYYNSF
B5: lipoprotein lipase (enzyme, UniProt P11152 28-474)
chain: T1 sequence
B6: Gephyrin (protein, UniProt Q8BUV3 1-769)
chain: MATEGMILTNHDHQIRVGVLTVSDSCFRNLAEDRSGINLKDLVQDPSLLGGTISAYKIVPDEIEEIKETLIDWCDEKELNLILTTGGTGFAPRDVTPEATKEVIEREAPGMALAMLMGSLNVTPLGMLSRPVCGIRGKTLIINLPGSKKGSQECFQFILPALPHAIDLLRDAIVKVKEVHDELEDLPSPPPPLSPPPTTSPHKQTEDKGVQCEEEEEEKKDSGVASTEDSSSSHITAAALAAKIPDSIISRGVQVLPRDTASLSTTPSESPRAQATSRLSTASCPTPKQIRRPDESKGVASRVGSLKARLPSCSSTYSVSEVQSRCSSKENILRASHSAVDITKVARRHRMSPFPLTSMDKAFITVLEMTPVLGTEIINYRDGMGRVLAQDVYAKDNLPPFPASVKDGYAVRAADGPGDRFIIGESQAGEQPTQTVMPGQVMRVTTGAPIPCGADAVVQVEDTELIRESDDGTEELEVRILVQARPGQDIRPIGHDIKRGECVLAKGTHMGPSEIGLLATVGVTEVEVNKFPVVAVMSTGNELLNPEDDLLPGKIRDSNRSTLLATIQEHGYPTINLGIVGDNPDDLLNALNEGISRADVIITSGGVSMGEKDYLKQVLDIDLHAQIHFGRVFMKPGLPTTFATLDIDGVRKIIFALPGNPVSAVVTCNLFVVPALRKMQGILDPRPTIIKARLSCDVKLDPRPEYHRCILTWHHQEPLPWAQSTGNQMSSRLMSMRSANGLLMLPPKTEQYVELHKGEVVDVMVIGRL

Legend:
[1] = molecular target: T1, lipoprotein lipase (mouse (endogenous in WAT, BAT and differentiated adipocytes)); assay: affinity purification with mass spectrometry; IP with LPL antibody from pooled WAT lysates of WT, Sel1L^AdipCre, Atg7^AdipCre and DKO mice (IgG as control); Cluster 1 hits enriched in WT, Cluster 2 hits enriched in DKO; 1% Triton X-100, 150 mM NaCl, 25 mM Tris-HCl pH 7.5, 4 °C; exploratory, without replication
[2] = molecular target: SEL1L (mouse (endogenous in BAT and differentiated adipocytes)) (UniProt Q9Z2G6); assay: affinity purification with mass spectrometry; IP with homemade SEL1L antibody from BAT lysate of Hrd1^Ucp1Cre mice (WT and Sel1L^Ucp1Cre BAT and IgG as controls); 1% Triton X-100, 150 mM NaCl, 25 mM Tris-HCl pH 7.5, 4 °C; exploratory, without replication

Molecule | binding [1] | binding [2]
Caveolin 1 (from UniProt P49817 1-178) | binds | 
Clusterin (from UniProt Q06890 22-448) | binds | 
HSP90B1 (GRP94) (from UniProt P08113 22-802) | binds | binds
HSPA5/BiP (from UniProt P20029 20-655) | binds | 
Myosin-11 (from UniProt O08638 1-1972) | binds | 
B1 | binds | 
B2 | binds | 
B3 | binds | 
B4 | binds | 
B5 |  | binds
B6 | binds | 
